Binding data for 8 molecules are collected here from PMC2779591.

Amino acid sequences for entries named in this document (tags omitted). A change or cut given only in a name is not applied to a line headed by its entry.
UniProt Q04724: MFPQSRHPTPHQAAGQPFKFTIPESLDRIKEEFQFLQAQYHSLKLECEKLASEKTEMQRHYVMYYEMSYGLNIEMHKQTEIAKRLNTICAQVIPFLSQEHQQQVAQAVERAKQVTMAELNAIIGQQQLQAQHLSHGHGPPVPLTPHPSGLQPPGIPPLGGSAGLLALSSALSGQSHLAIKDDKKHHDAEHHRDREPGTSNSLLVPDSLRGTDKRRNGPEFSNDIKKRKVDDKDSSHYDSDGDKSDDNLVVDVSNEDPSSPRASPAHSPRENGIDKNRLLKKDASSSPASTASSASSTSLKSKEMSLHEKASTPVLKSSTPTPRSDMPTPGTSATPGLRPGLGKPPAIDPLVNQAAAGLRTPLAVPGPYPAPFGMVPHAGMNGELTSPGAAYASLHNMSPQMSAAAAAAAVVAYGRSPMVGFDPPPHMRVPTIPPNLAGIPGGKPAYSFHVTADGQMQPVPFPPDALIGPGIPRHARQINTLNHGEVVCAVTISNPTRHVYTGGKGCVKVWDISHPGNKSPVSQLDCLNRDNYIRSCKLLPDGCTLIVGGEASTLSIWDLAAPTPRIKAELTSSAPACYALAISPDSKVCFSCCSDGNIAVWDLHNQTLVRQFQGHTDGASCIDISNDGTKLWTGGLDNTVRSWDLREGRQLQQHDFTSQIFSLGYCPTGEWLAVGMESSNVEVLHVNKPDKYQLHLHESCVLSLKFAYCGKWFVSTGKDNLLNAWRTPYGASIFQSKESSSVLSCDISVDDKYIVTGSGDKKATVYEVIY

Assay [1] has as its target T1, HA epitope-tagged Engrailed1 (UniProt P09065).
T1 sequence: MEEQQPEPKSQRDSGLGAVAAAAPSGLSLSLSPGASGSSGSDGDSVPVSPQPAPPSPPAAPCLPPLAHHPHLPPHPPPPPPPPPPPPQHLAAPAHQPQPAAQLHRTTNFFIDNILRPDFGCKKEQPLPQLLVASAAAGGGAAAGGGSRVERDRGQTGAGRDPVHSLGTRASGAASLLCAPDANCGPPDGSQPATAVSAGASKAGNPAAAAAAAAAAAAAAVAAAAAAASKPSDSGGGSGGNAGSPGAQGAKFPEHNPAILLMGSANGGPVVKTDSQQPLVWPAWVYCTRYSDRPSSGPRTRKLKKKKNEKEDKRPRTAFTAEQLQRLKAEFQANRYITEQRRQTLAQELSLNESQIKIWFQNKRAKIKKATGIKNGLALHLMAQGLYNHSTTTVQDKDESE
The assay is described as follows: co-IP; HEK293 cells co-transfected with FLAG-Gro/TLE1 (WT or mutant) and HA-En1; lysate immunoprecipitated with anti-HA antibody, Western blot with anti-FLAG or anti-HA.

The target in assay [2] is FLAG epitope-tagged Gro/TLE1(S286A) (human) (UniProt Q04724). The experiment in a line: co-IP; HEK293 cells co-transfected with FLAG-Gro/TLE1 (WT or mutant) and FLAG-Hes1; lysate immunoprecipitated with anti-Gro/TLE1 antibody, Western blot with anti-FLAG. A general note: A western blot detects proteins with antibodies after separation by electrophoresis.
Assay [3] concerns the target FLAG epitope-tagged Gro/TLE1(S286E) (human) (UniProt Q04724). Described as above.
The target in assay [4] is FLAG epitope-tagged Gro/TLE1(S289A) (human) (UniProt Q04724). The description is as above.
The target in assay [5] is FLAG epitope-tagged Gro/TLE1(S289E) (human) (UniProt Q04724). The description is as above.
Assay [6] has as its target FLAG epitope-tagged Gro/TLE1(S298A) (human) (UniProt Q04724). The description is as above.
The target in assay [7] is FLAG epitope-tagged Gro/TLE1(S298E) (human) (UniProt Q04724). The description is as above.
For assay [8], the target named is FLAG epitope-tagged wild type Gro/TLE1 (human) (UniProt Q04724). The description is as above.

Results are given in words; binding and its absence hold for the method and conditions named. Binding seen in cells or lysates may run through a third protein. Some binding calls cover weakened binding; strength is not graded here. Where a sequence is shown, tags or fusion partners need not be part of it.

Consider “FLAG epitope-tagged Gro/TLE1(S298A) (from UniProt Q04724 1-770)”, for which the binding result in assay [1] is reported as “binds”. On the same count and under the same terms, then “FLAG epitope-tagged Gro/TLE1(S286E) (from UniProt Q04724 1-770)”, with “binds”; and “FLAG epitope-tagged Gro/TLE1(S289E) (from UniProt Q04724 1-770)”, with “binds”; and “FLAG epitope-tagged Gro/TLE1(S289A) (from UniProt Q04724 1-770)”, with “binds”. Same read-out and setting: then “FLAG epitope-tagged wild type Gro/TLE1 (from UniProt Q04724 1-770)”, with “binds”; and “FLAG epitope-tagged Gro/TLE1(S298E) (from UniProt Q04724 1-770)”, with “binds”.

On to “FLAG epitope-tagged Gro/TLE1(S286A) (from UniProt Q04724 1-770)”, for which the binding result in assay [1] was “binds”.

B1: FLAG-Hes1 (protein, UniProt Q04666 1-281)
chain: MPADIMEKNSSSPVAATPASVNTTPDKPKTASEHRKSSKPIMEKRRRARINESLSQLKTLILDALKKDSSRHSKLEKADILEMTVKHLRNLQRAQMTAALSTDPSVLGKYRAGFSECMNEVTRFLSTCEGVNTEVRTRLLGHLANCMTQINAMTYPGQAHPALQAPPPPPPSGPGGPQHAPFAPPPPLVPIPGGAAPPPGSAPCKLGSQAGEAAKVFGGFQVVPAPDGQFAFLIPNGAFAHSGPVIPVYTSNSGTSVGPNAVSPSSGSSLTADSMWRPWRN
Regarding B1, the binding result in assay [2], in assay [3], in assay [4], in assay [5], in assay [6] and in assay [7] was “binds” in each case. The binding entry in assay [8] is given as “binds”.
